Test results as given in paper PMC4214723.
No constants are given. Whether binding was seen depends on the method and setting. In cells and extracts the contact can be indirect. Some results given as binding are weak or reduced against the parent protein; the word gives no strength. Sequences can lack the tags named with a protein.

Protein sequences, listed by entry. Tags and fused reporters are not part of them. Residues count along the entry.
UniProt C0LGT6, residues 25-1031: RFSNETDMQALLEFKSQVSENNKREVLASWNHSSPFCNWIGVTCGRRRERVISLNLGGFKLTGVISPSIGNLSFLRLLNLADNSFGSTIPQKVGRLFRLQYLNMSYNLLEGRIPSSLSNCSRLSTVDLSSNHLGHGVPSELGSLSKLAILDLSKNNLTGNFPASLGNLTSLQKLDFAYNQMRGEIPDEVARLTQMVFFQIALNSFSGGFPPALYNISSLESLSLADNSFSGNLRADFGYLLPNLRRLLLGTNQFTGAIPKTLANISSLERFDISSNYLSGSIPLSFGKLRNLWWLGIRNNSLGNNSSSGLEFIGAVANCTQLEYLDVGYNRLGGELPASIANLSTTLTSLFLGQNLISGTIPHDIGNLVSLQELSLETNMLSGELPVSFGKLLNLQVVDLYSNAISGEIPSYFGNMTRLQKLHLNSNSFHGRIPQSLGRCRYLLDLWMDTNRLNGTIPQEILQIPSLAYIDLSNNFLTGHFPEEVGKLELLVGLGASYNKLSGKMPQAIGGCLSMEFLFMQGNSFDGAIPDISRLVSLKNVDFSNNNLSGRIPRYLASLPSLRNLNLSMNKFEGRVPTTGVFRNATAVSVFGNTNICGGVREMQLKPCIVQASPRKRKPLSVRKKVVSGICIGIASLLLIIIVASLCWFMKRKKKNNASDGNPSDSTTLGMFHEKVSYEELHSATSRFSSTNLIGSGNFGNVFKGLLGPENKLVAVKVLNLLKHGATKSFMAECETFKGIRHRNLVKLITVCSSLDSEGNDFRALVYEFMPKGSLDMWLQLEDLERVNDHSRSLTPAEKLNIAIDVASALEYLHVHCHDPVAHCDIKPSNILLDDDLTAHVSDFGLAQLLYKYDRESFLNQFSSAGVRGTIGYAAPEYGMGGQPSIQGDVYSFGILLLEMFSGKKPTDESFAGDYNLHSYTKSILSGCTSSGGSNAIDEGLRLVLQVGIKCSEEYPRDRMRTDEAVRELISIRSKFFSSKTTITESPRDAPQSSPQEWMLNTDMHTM

Target: T1, BAK1-Myc (Arabidopsis) (UniProt Q94F62)
T1 sequence: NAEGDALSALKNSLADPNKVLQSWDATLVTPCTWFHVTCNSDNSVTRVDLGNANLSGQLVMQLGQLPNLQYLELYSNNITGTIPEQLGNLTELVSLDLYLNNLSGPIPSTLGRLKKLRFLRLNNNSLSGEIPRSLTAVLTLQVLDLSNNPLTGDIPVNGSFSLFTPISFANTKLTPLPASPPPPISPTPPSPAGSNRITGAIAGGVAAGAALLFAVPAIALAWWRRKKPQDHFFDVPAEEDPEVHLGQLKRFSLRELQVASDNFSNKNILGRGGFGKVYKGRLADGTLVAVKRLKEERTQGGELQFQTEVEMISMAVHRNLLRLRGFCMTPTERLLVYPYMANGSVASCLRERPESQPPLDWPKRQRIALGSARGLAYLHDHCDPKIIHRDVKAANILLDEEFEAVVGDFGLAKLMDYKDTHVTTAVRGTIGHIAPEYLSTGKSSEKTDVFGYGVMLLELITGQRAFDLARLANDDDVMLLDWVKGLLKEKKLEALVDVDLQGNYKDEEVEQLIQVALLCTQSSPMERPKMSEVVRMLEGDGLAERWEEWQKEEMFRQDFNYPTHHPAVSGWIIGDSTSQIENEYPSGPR
Test: co-IP

Q: With “EFR-HA (full-length, wild type) (from UniProt C0LGT6 25-1031) (receptor)” as the substance, how does the binding read?
A: The binding was “binds”.
